Results are given in words; binding and its absence hold for the method and conditions named. Some binding calls cover weakened binding; strength is not graded here.
Target: T1, CD276 protein in the Membrane Proteome Array (human) (UniProt Q5ZPR3)
T1 sequence (looked up): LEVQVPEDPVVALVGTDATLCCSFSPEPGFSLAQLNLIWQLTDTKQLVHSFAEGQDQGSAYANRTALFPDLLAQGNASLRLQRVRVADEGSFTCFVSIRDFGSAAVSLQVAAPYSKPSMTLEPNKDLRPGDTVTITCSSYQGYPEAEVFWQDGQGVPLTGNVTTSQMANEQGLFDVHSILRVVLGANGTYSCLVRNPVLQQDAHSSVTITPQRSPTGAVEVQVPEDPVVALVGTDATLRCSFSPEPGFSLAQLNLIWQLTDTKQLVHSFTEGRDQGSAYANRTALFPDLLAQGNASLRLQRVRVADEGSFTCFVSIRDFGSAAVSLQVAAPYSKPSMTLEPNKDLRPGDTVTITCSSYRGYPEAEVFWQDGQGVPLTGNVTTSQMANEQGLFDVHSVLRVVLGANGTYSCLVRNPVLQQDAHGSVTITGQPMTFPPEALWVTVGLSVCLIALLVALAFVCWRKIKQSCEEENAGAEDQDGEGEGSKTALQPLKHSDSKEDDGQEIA
Test: Membrane Proteome Array, flow cytometry on unfixed cells

binding: binds
B1: CD276T1H1-T1L1 (antibody, V domains shown)
VH: EVQLVESGGGLIQPGGSLRLSCAASGFTFSTYVMSWVRQAPGKGLEWVSSILSGGTSFYADNVKGRFTISRDNSKNTLYLQMNSLRAEDTAVYYCARRYGHDHYYAMDYWGQGTLVTVSS
VL: EIVLTQSPATLSLSPGERATLSCAASSSVSSSYLHWYQQKPGLAPRLLIYSTSNLASGIPDRFSGSGSGTDFTLTISRLEPEDFAVYYCQQYHRSPWTFGGGTKVEIK
notes: Heavy chain variable region cloned into pcDNA3.1-IgG1Fc and light chain variable region into pcDNA3.1-IgKc (IgG1, kappa); also called humanized CD276 antibody (CD276T1H1-T1L1); CD276 humanized antibody

Source: patent US20250002583A1 (PERSONGEN BIOTHERAPEUTICS SUZHOU, published 2025)
